Some results were stated once for a whole list of compounds, not compound by compound.
Tested on: LP-1 cells (1,6-fucosylation on the antibody)
Assay: Fucosylation status of LP-1-generated IgG by reducing PLRP-MS
Assay type: cell-based, human
Settings: 40 mL LP-1 cells, 100 μM, 5 days; low yield likely due to toxicity of the analogs to the cells
Source text: To further define the results of the AOL dot blot, samples of the IgGs produced by cells treated with the following fucose analogs (that gave moderate to strong decreases in the dot blot AOL signal) were isolated and examined by reducing PLRP-MS to verify the fucosylation status using the MW of the heavy chain: alkynyl fucose peracetate; 5-vinylfucose tetraaceate; 5-methylketofucose tetraacetate; 6-bromofucose tetraacetate; 6-fluorofucose tetraacetate; 5-ethylfucose tetraacetate; 5-epoxyfucose tetraacetate; 6′6-difluorofucose tetraacetate; 6-keto-6-ethyl fucose tetraacetate; and 2-fluorofucose peracetate.
40 mL samples of LP-1 cells (250,000 cells/mL) were treated with 100 μM of a fucose analog for 5 days as described above, and the IgGs were purified as described using protein A resin. The yields were estimated by UV spectroscopy assuming an extinction coefficient of 1.4 AU/(mg/mL). Seven of the ten compounds yielded enough IgG to perform the analysis (use of SGD-2067, SGD-1964, and SGD-2020 yielded <10 μg of IgG, likely due to toxicity of the analogs to the cells). […]
The mass spectrometry signals were evaluated by comparing the peak height of the heavy chain versus heavy chain minus fucose and heavy chain minus fucose plus the mass of the fucose analog (which would arise if there was incorporation of the analog into the antibody carbohydrate).

CC(=O)O[C@@H]([C@@H](C=O)OC(C)=O)[C@H](OC(C)=O)C(C)(C)OC(C)=O [SGD-1964, 5-methylketo fucose tetraacetate]
IgG yielded: < 10 µg
